Binding data for 2 molecules are collected here from publication PMC11014988.

These are yes or no findings as the source states them, for the method shown. In cells and extracts the contact can be indirect. Some binding calls cover weakened binding; strength is not graded here. Where a sequence is shown, tags or fusion partners need not be part of it.

The test concerns the target T1, Mdm34-HA (yeast (S. cerevisiae; endogenous locus, strains derived from YPH499)) (UniProt P53083).
T1 sequence: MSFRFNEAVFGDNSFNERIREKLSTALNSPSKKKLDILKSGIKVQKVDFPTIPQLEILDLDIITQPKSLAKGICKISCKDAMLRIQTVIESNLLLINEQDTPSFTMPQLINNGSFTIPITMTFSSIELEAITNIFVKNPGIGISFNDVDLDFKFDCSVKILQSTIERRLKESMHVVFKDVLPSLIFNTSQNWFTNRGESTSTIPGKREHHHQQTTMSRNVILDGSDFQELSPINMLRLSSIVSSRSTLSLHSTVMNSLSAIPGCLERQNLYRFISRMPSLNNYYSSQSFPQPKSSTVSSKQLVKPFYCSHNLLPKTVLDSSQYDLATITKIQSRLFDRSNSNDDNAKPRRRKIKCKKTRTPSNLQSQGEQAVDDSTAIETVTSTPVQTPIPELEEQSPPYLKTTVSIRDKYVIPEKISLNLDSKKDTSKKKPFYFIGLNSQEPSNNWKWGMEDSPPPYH
The experiment in a line: co-IP; radiolabeled precursor from reticulocyte lysate incubated 5 min with semi-intact cells of wild type or Mdm34-HA cells; lysed in 10 mM Tris pH 7.5, 150 mM NaCl, 0.5 mM EDTA, 0.5% Triton X-100; HA antibody and Protein A beads, 1 h at 4 °C; SDS-PAGE and autoradiography.

B1: Oxa1 precursor (protein, UniProt P39952 1-402)
chain: MFKLTSRLVTSRFAASSRLATARTIVLPRPHPSWISFQAKRFNSTGPNANDVSEIQTQLPSIDELTSSAPSLSASTSDLIANTTQTVGELSSHIGYLNSIGLAQTWYWPSDIIQHVLEAVHVYSGLPWWGTIAATTILIRCLMFPLYVKSSDTVARNSHIKPELDALNNKLMSTTDLQQGQLVAMQRKKLLSSHGIKNRWLAAPMLQIPIALGFFNALRHMANYPVDGFANQGVAWFTDLTQADPYLGLQVITAAVFISFTRLGGETGAQQFSSPMKRLFTILPIISIPATMNLSSAVVLYFAFNGAFSVLQTMILRNKWVRSKLKITEVAKPRTPIAGASPTENMGIFQSLKHNIQKARDQAERRQLMQDNEKKLQESFKEKRQNSKIKIVHKSNFINNKK
modifications: 35S-methionine (radiolabeled)
For B1, the binding result is given as “binds”.

B2: mature form of Oxa1 (protein, UniProt P39952 43-402)
chain: NSTGPNANDVSEIQTQLPSIDELTSSAPSLSASTSDLIANTTQTVGELSSHIGYLNSIGLAQTWYWPSDIIQHVLEAVHVYSGLPWWGTIAATTILIRCLMFPLYVKSSDTVARNSHIKPELDALNNKLMSTTDLQQGQLVAMQRKKLLSSHGIKNRWLAAPMLQIPIALGFFNALRHMANYPVDGFANQGVAWFTDLTQADPYLGLQVITAAVFISFTRLGGETGAQQFSSPMKRLFTILPIISIPATMNLSSAVVLYFAFNGAFSVLQTMILRNKWVRSKLKITEVAKPRTPIAGASPTENMGIFQSLKHNIQKARDQAERRQLMQDNEKKLQESFKEKRQNSKIKIVHKSNFINNKK
modifications: 35S-methionine (radiolabeled)
On to B2, for which the binding result is “no binding”.
